Amino acid sequences for entries named in this document (tags omitted).
UniProt Q86WV6, whole entry R71H/G230A/H232R/R293Q: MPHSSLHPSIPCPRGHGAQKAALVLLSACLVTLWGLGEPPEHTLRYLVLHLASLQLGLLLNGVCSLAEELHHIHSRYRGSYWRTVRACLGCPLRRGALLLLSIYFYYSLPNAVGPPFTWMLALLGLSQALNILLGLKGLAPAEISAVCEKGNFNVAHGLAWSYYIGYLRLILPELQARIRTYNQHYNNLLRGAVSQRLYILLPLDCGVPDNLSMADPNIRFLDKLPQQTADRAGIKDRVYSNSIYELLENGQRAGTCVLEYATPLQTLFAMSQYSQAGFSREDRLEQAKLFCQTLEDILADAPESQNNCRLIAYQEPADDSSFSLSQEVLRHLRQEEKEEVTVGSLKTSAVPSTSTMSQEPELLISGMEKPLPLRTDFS

According to patent US20240051970A1, “COMPOUNDS AND COMPOSITIONS FOR TREATING CONDITIONS ASSOCIATED WITH STING ACTIVITY” (IFM Due, Inc., priority 2020, published 2024):

Target: hSTING (Homo sapiens, UniProt Q86WV6, G230A/H232R/R293Q/R71H)
Experiment: STING reporter assay (luciferase) in THP1-Dual KO-IFNAR2 cells activated with 2'3'cGAMP
Conditions: read-out: hSTING EC50, 15 μM 2'3'cGAMP, 24 h
Method: STING pathway activation by the compounds described herein was measured using THP1-Dual™ cells (KO-IFNAR2).
THP1-Dual™ KO-IFNAR2 Cells (obtained from invivogen) were maintained in RPMI, 10% FCS, 5 ml P/S, 2 mM L-glut, 10 mM Hepes, and 1 mM sodium pyruvate. Compounds were spotted in empty 384 well tissue culture plates (Greiner 781182) by Echo for a final concentration of 0.0017-100 μM. Cells were plated into the TC plates at 40 μL per well, 2×10E6 cells/mL. For activation with STING ligand, 2′3′cGAMP (MW 718.38, obtained from Invivogen), was prepared in Optimem media.
The following solutions were prepared for each 1×384 plate: • Solution A: 2 mL Optimem with one of the following stimuli: • 60 μL of 10 mM 2′3′cGAMP 4 150 μM stock • Solution B: 2 mL Optimem with 60 μL Lipofectamine 2000 4 Incubate 5 min at RT
2 mL of solution A and 2 ml Solution B was mixed and incubated for 20 min at room temperature (RT). […] Luciferase reporter activity was then measured. EC50 values were calculated by using standard methods known in the art.
Luciferase reporter assay: 10 μL of supernatant from the assay was transferred to white 384-plate with flat bottom and squared wells. […] Luminescence was measured on a Platereader (e.g., Spectramax I3X (Molecular Devices GF3637001)).
Luciferase reporter activity was then measured. EC50 values were calculated by using standard methods known in the art.

FC1(F)CC=C(c2ccc3[nH]c(Nc4cc(Cl)c5cc[nH]c5c4)nc3c2)CC1
EC50: 200 to 1000 nM

The structures given here were assigned with low confidence; some may be wrong.
